Data from paper PMC9800617, “Pharmacokinetics/pharmacodynamics of polymyxin B in patients with bloodstream infection caused by carbapenem-resistant Klebsiella pneumoniae” (Frontiers in Pharmacology, 2022).
Bridge positions count the residues as written; N and C are the ends. Square brackets hold non-standard residues; d marks the D form. Peptide text beside a SMILES is read from it. * marks the point of attachment. X1 = CC[C@H](C)CCCCC(=O)*; Dab = NCC[C@H](N)C(=O)O

Tested on: carbapenem-resistant K. pneumoniae
Assay: Clinical PK/PD index (AUC/MIC) in BSI patients
Format: in vivo, human
Details: eight evaluated patients, lowest value of cohort

CC[C@H](C)CCCCC(=O)N[C@@H](CCN)C(=O)N[C@H](C(=O)N[C@@H](CCN)C(=O)N[C@H]1CCNC(=O)[C@H]([C@@H](C)O)NC(=O)[C@H](CCN)NC(=O)[C@H](CCN)NC(=O)[C@H](CC(C)C)NC(=O)[C@@H](Cc2ccccc2)NC(=O)[C@H](CCN)NC1=O)[C@@H](C)O [polymyxin B] (X1-[Dab]T[Dab][Dab][Dab][dF]L[Dab][Dab]T; lactam 4-C)
AUCss,24h/MIC achieved (CRKP MIC ≤1 mg/L, 1.25 mg/kg 12-hourly): ≥ 54.4
fAUCss,24h/MIC achieved (unbound fraction 0.42): ≥ 22.8
